No constants are given. Whether binding was seen depends on the method and setting. Binding seen in cells or lysates may run through a third protein. A yes stands for co-enrichment or nearness to the bait. Other partners may have been found.
Biological target: p85α regulatory subunit of phosphoinositide-3-kinase (PI3K) (human (endogenous in human cell lines)) (UniProt P27986)
Test: affinity purification with mass spectrometry; IP of endogenous p85α (rabbit polyclonal antibody) from 10 mg lysate (0.5% NP-40) of human NSCLC and multiple myeloma lines under serum, starvation or kinase inhibitors, short SDS-PAGE, LC-MS/MS; hits kept after reciprocal BLAST and subtraction of rabbit IgG controls

Chains of the proteins cited; added tags and fusions are not shown.
UniProt P27986: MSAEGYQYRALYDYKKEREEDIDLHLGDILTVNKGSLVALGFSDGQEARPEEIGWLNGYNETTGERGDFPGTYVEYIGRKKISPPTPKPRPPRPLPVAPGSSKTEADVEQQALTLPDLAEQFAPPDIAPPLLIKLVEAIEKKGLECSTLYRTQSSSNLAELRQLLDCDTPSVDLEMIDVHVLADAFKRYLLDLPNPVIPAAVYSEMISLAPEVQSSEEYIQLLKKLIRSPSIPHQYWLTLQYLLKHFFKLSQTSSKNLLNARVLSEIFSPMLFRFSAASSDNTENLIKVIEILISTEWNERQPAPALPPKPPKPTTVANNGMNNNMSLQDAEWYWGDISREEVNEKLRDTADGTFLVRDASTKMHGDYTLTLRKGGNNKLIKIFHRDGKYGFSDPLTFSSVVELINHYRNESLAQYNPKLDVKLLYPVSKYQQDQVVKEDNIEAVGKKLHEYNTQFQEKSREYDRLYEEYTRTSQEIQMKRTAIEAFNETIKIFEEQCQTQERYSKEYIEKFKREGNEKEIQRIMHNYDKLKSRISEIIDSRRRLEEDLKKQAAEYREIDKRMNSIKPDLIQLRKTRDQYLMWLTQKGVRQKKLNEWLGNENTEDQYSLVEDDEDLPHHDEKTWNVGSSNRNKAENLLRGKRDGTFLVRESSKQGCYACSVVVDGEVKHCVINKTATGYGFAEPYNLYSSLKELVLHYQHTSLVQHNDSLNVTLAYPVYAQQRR

Row | binding | Binder
1 | binds | Kinesin-like protein KIF23 (protein, UniProt Q02241 1-960) MKSARAKTPRKPTVKKGSQTNLKDPVGVYCRVRPLGFPDQECCIEVINNTTVQLHTPEGYRLNRNGDYKETQYSFKQVFGTHTTQKELFDVVANPLVNDLIHGKNGLLFTYGVTGSGKTHTMTGSPGEGGLLPRCLDMIFNSIGSFQAKRYVFKSNDRNSMDIQCEVDALLERQKREAMPNPKTSSSKRQVDPEFADMITVQEFCKAEEVDEDSVYGVFVSYIEIYNNYIYDLLEEVPFDPIKPKPPQSKLLREDKNHNMYVAGCTEVEVKSTEEAFEVFWRGQKKRRIANTHLNRESSRSHSVFNIKLVQAPLDADGDNVLQEKEQITISQLSLVDLAGSERTNRTRAEGNRLREAGNINQSLMTLRTCMDVLRENQMYGTNKMVPYRDSKLTHLFKNYFDGEGKVRMIVCVNPKAEDYEENLQVMRFAEVTQEVEVARPVDKAICGLTPGRRYRNQPRGPVGNEPLVTDVVLQSFPPLPSCEILDINDEQTLPRLIEALEKRHNLRQMMIDEFNKQSNAFKALLQEFDNAVLSKENHMQGKLNEKEKMISGQKLEIERLEKKNKTLEYKIEILEKTTTIYEEDKRNLQQELETQNQKLQRQFSDKRRLEARLQGMVTETTMKWEKECERRVAAKQLEMQNKLWVKDEKLKQLKAIVTEPKTEKPERPSRERDREKVTQRSVSPSPVPLSSNYIAQISNGQQLMSQPQLHRRSNSCSSISVASCISEWEQKIPTYNTPLKVTSIARRRQQEPGQSKTCIVSDRRRGMYWTEGREVVPTFRNEIEIEEDHCGRLLFQPDQNAPPIRLRHRRSRSAGDRWVDHKPASNMQTETVMQPHVPHAITVSVANEKALAKCEKYMLTHQELASDGEIETKLIKGDIYKTRGGGQSVQFTDIETLKQESPNGSRKRRSSTVAPAQPDGAESEWTDVETRCSVAVEMRAGSQLGPGYQHHAQPKRKKP
2 | binds | Electron transfer flavoprotein subunit alpha, mitochondrial (protein, UniProt P13804 20-333) QSTLVIAEHANDSLAPITLNTITAATRLGGEVSCLVAGTKCDKVAQDLCKVAGIAKVLVAQHDVYKGLLPEELTPLILATQKQFNYTHICAGASAFGKNLLPRVAAKLEVAPISDIIAIKSPDTFVRTIYAGNALCTVKCDEKVKVFSVRGTSFDAAATSGGSASSEKASSTSPVEISEWLDQKLTKSDRPELTGAKVVVSGGRGLKSGENFKLLYDLADQLHAAVGASRAAVDAGFVPNDMQVGQTGKIVAPELYIAVGISGAIQHLAGMKDSKTIVAINKDPEAPIFQVADYGIVADLFKVVPEMTEILKKK
3 | binds | Rac GTPase-activating protein 1 (protein, UniProt Q9H0H5 1-632) MDTMMLNVRNLFEQLVRRVEILSEGNEVQFIQLAKDFEDFRKKWQRTDHELGKYKDLLMKAETERSALDVKLKHARNQVDVEIKRRQRAEADCEKLERQIQLIREMLMCDTSGSIQLSEEQKSALAFLNRGQPSSSNAGNKRLSTIDESGSILSDISFDKTDESLDWDSSLVKTFKLKKREKRRSTSRQFVDGPPGPVKKTRSIGSAVDQGNESIVAKTTVTVPNDGGPIEAVSTIETVPYWTRSRRKTGTLQPWNSDSTLNSRQLEPRTETDSVGTPQSNGGMRLHDFVSKTVIKPESCVPCGKRIKFGKLSLKCRDCRVVSHPECRDRCPLPCIPTLIGTPVKIGEGMLADFVSQTSPMIPSIVVHCVNEIEQRGLTETGLYRISGCDRTVKELKEKFLRVKTVPLLSKVDDIHAICSLLKDFLRNLKEPLLTFRLNRAFMEAAEITDEDNSIAAMYQAVGELPQANRDTLAFLMIHLQRVAQSPHTKMDVANLAKVFGPTIVAHAVPNPDPVTMLQDIKRQPKVVERLLSLPLEYWSQFMMVEQENIDPLHVIENSNAFSTPQTPDIKVSLLGPVTTPEHQLLKTPSSSSLSQRVRSTLTKNTPRFGSKSKSATNLGRQGNFFASPMLK
4 | binds | Far upstream element-binding protein 2 (protein, UniProt Q92945 1-711) MSDYSTGGPPPGPPPPAGGGGGAGGAGGGPPPGPPGAGDRGGGGPGGGGPGGGSAGGPSQPPGGGGPGIRKDAFADAVQRARQIAAKIGGDAATTVNNSTPDFGFGGQKRQLEDGDQPESKKLASQGDSISSQLGPIHPPPRTSMTEEYRVPDGMVGLIIGRGGEQINKIQQDSGCKVQISPDSGGLPERSVSLTGAPESVQKAKMMLDDIVSRGRGGPPGQFHDNANGGQNGTVQEIMIPAGKAGLVIGKGGETIKQLQERAGVKMILIQDGSQNTNVDKPLRIIGDPYKVQQACEMVMDILRERDQGGFGDRNEYGSRIGGGIDVPVPRHSVGVVIGRSGEMIKKIQNDAGVRIQFKQDDGTGPEKIAHIMGPPDRCEHAARIINDLLQSLRSGPPGPPGGPGMPPGGRGRGRGQGNWGPPGGEMTFSIPTHKCGLVIGRGGENVKAINQQTGAFVEISRQLPPNGDPNFKLFIIRGSPQQIDHAKQLIEEKIEGPLCPVGPGPGGPGPAGPMGPFNPGPFNQGPPGAPPHAGGPPPHQYPPQGWGNTYPQWQPPAPHDPSKAAAAAADPNAAWAAYYSHYYQQPPGPVPGPAPAPAAPPAQGEPPQPPPTGQSDYTKAWEEYYKKIGQQPQQPGAPPQQDYTKAWEEYYKKQAQVATGGGPGAPPGSQPDYSAAWAEYYRQQAAYYGQTPGPGGPQPPPTQQGQQQAQ
5 | binds | Ras GTPase-activating protein-binding protein 2 (protein, UniProt Q9UN86 1-482) MVMEKPSPLLVGREFVRQYYTLLNKAPEYLHRFYGRNSSYVHGGVDASGKPQEAVYGQNDIHHKVLSLNFSECHTKIRHVDAHATLSDGVVVQVMGLLSNSGQPERKFMQTFVLAPEGSVPNKFYVHNDMFRYEDEVFGDSEPELDEESEDEVEEEQEERQPSPEPVQENANSGYYEAHPVTNGIEEPLEESSHEPEPEPESETKTEELKPQVEEKNLEELEEKSTTPPPAEPVSLPQEPPKAFSWASVTSKNLPPSGTVSSSGIPPHVKAPVSQPRVEAKPEVQSQPPRVREQRPRERPGFPPRGPRPGRGDMEQNDSDNRRIIRYPDSHQLFVGNLPHDIDENELKEFFMSFGNVVELRINTKGVGGKLPNFGFVVFDDSEPVQRILIAKPIMFRGEVRLNVEEKKTRAARERETRGGGDDRRDIRRNDRGPGGPRGIVGGGMMRDRDGRGPPPRGGMAQKLGSGRGTGQMEGRFTGQRR
6 | binds | WD repeat and HMG-box DNA-binding protein 1 (protein, UniProt O75717 1-1129) MPATRKPMRYGHTEGHTEVCFDDSGSFIVTCGSDGDVRIWEDLDDDDPKFINVGEKAYSCALKSGKLVTAVSNNTIQVHTFPEGVPDGILTRFTTNANHVVFNGDGTKIAAGSSDFLVKIVDVMDSSQQKTFRGHDAPVLSLSFDPKDIFLASASCDGSVRVWQISDQTCAISWPLLQKCNDVINAKSICRLAWQPKSGKLLAIPVEKSVKLYRRESWSHQFDLSDNFISQTLNIVTWSPCGQYLAAGSINGLIIVWNVETKDCMERVKHEKGYAICGLAWHPTCGRISYTDAEGNLGLLENVCDPSGKTSSSKVSSRVEKDYNDLFDGDDMSNAGDFLNDNAVEIPSFSKGIINDDEDDEDLMMASGRPRQRSHILEDDENSVDISMLKTGSSLLKEEEEDGQEGSIHNLPLVTSQRPFYDGPMPTPRQKPFQSGSTPLHLTHRFMVWNSIGIIRCYNDEQDNAIDVEFHDTSIHHATHLSNTLNYTIADLSHEAILLACESTDELASKLHCLHFSSWDSSKEWIIDLPQNEDIEAICLGQGWAAAATSALLLRLFTIGGVQKEVFSLAGPVVSMAGHGEQLFIVYHRGTGFDGDQCLGVQLLELGKKKKQILHGDPLPLTRKSYLAWIGFSAEGTPCYVDSEGIVRMLNRGLGNTWTPICNTREHCKGKSDHYWVVGIHENPQQLRCIPCKGSRFPPTLPRPAVAILSFKLPYCQIATEKGQMEEQFWRSVIFHNHLDYLAKNGYEYEESTKNQATKEQQELLMKMLALSCKLEREFRCVELADLMTQNAVNLAIKYASRSRKLILAQKLSELAVEKAAELTATQVEEEEEEEDFRKKLNAGYSNTATEWSQPRFRNQVEEDAEDSGEADDEEKPEIHKPGQNSFSKSTNSSDVSAKSGAVTFSSQGRVNPFKVSASSKEPAMSMNSARSTNILDNMGKSSKKSTALSRTTNNEKSPIIKPLIPKPKPKQASAASYFQKRNSQTNKTEEVKEENLKNVLSETPAICPPQNTENQRPKTGFQMWLEENRSNILSDNPDFSDEADIIKEGMIRFRVLSTEERKVWANKAKGETASEGTEAKKRKRVVDESDETENQEEKAKENLNLSKKQKPLDFSTNQKLSAFAFKQE
7 | binds | Aconitate hydratase, mitochondrial (protein, UniProt Q99798 28-780) QRAKVAMSHFEPNEYIHYDLLEKNINIVRKRLNRPLTLSEKIVYGHLDDPASQEIERGKSYLRLRPDRVAMQDATAQMAMLQFISSGLSKVAVPSTIHCDHLIEAQVGGEKDLRRAKDINQEVYNFLATAGAKYGVGFWKPGSGIIHQIILENYAYPGVLLIGTDSHTPNGGGLGGICIGVGGADAVDVMAGIPWELKCPKVIGVKLTGSLSGWSSPKDVILKVAGILTVKGGTGAIVEYHGPGVDSISCTGMATICNMGAEIGATTSVFPYNHRMKKYLSKTGREDIANLADEFKDHLVPDPGCHYDQLIEINLSELKPHINGPFTPDLAHPVAEVGKVAEKEGWPLDIRVGLIGSCTNSSYEDMGRSAAVAKQALAHGLKCKSQFTITPGSEQIRATIERDGYAQILRDLGGIVLANACGPCIGQWDRKDIKKGEKNTIVTSYNRNFTGRNDANPETHAFVTSPEIVTALAIAGTLKFNPETDYLTGTDGKKFRLEAPDADELPKGEFDPGQDTYQHPPKDSSGQHVDVSPTSQRLQLLEPFDKWDGKDLEDLQILIKVKGKCTTDHISAAGPWLKFRGHLDNISNNLLIGAINIENGKANSVRNAVTQEFGPVPDTARYYKKHGIRWVVIGDENYGEGSSREHAALEPRHLGGRAIITKSFARIHETNLKKQGLLPLTFADPADYNKIHPVDKLTIQGLKDFTPGKPLKCIIKHPNGTQETILLNHTFNETQIEWFRAGSALNRMKELQQ
